# Assay results published in US9498495B2, “Methods for in vitro differentiation of TH-17+ cells” (New York University, priority 2008, dated 2016).
# For at least one compound, name, drawing or mass did not settle the structure.
# Tested on: Naive cord blood CD4+ T cells
# Experiment: Th17 cell polarization of naive cord blood CD4+ T cells in serum-free media (intracellular and surface staining: IL-17, IL-22, FOXP3, CCR6)
# Format: cell-based, human
# Conditions: IL-2+IL-1β+IL-23+TGF-β, retinoic acid 10 and 100 nM, day 6
# Procedure: Blood samples were obtained from the New York Blood Center. Mononuclear cells were prepared from buffy coats of healthy adult donors or from cord blood on FicollPAQUE gradients. CD4^+ T cells were isolated on an autoMACS Pro using Miltenyi bead depletion of CD14^+ and CD25^+ cells followed by positive selection of CD4^+ cells. […] Adult CD4^+ T cell subsets and naive cord blood CD4^+ T cells were further purified respectively as CD3^+CD4^+CD25^−CD45RO^−/+ and CD3^+CD4^+CD25^−HLA-DR^−CD45RA^+ by cell sorting on a FACSAria.
# Cells were cultivated in either RPMI1640 (Invitrogen) supplemented with 10% fetal bovine serum (Hyclone), penicillin-streptomycin, 2 mM glutamine, 10 mM HEPES, 1 mM pyruvate and 0.1 mM non-essential amino acids or serum-free XVIVO-20 (Lonza) supplemented with penicillin-streptomycin in a 37° C. 5% CO2 incubator. CD4^+ T cells were stimulated by addition of anti-mouse IgG magnetic beads (Pierce) previously coated with purified anti-CD3 and anti-CD28 at final concentrations of 1 bead/cell and 1 μg/ml of each antibody. […] Lentiviral supernatants were added at an MOI ranging from 1 to 10. […]
# For intracellular cytokine staining, cells were incubated for 5 hours with 50 ng/ml PMA (Sigma), 500 ng/ml Ionomycin (Sigma), and GolgiStop (BD). […] Flow cytometric measures were performed on a LSR II (BD Biosciences) instrument and analyzed using FlowJo software (Tree Star Inc.). […]
smiles,measurement,value
"CC1=C(/C=C/C(C)=C/C=C/C(C)=C/C(=O)O)C(C)(C)CCC1 [retinoic acid, reference compound]",IL-17 induction,inhibited
